Source: article PMC6362812

Biological target: T1, MBP-tagged Hs NOT4 (full length, bacterially expressed) (human) (UniProt O95628)
T1 sequence: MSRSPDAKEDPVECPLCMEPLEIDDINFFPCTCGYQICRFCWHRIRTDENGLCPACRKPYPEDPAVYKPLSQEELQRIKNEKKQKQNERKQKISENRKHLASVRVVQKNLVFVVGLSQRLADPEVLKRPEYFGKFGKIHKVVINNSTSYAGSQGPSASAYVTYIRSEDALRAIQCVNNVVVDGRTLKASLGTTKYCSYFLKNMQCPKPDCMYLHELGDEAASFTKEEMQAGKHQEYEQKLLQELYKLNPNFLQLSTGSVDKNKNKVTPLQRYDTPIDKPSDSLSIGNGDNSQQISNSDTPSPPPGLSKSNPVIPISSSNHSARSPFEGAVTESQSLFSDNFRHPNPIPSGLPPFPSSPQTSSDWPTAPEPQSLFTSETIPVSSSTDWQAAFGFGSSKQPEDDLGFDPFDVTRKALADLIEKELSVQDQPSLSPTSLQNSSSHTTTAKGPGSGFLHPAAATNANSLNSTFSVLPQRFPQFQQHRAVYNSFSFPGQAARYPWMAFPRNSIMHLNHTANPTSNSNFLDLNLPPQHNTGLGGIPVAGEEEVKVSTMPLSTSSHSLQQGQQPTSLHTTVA
Assay: pull-down; MBP pull-down: MBP-tagged Hs NOT4 or fragments (isolated on Ni-NTA) immobilised on amylose resin, excess of purified CCR4–NOT proteins, 1 h, 50 mM Na/HEPES pH 7.5, 300 mM NaCl, 2 mM β-mercaptoethanol; maltose elution, SDS-PAGE, Coomassie; both purified

For NOT2–NOT3 heterodimer (human) (complex), the binding was “binds weakly”.

These are yes or no findings as the source states them, for the method shown. Binding calls can cover weak binding; strength is not graded here. Tags and fused reporters may be left off the sequences shown.
